# Publication PMC8565353
# Sequences of proteins named here, by UniProt entry; tags and fusion partners are left off.
# UniProt Q86U44: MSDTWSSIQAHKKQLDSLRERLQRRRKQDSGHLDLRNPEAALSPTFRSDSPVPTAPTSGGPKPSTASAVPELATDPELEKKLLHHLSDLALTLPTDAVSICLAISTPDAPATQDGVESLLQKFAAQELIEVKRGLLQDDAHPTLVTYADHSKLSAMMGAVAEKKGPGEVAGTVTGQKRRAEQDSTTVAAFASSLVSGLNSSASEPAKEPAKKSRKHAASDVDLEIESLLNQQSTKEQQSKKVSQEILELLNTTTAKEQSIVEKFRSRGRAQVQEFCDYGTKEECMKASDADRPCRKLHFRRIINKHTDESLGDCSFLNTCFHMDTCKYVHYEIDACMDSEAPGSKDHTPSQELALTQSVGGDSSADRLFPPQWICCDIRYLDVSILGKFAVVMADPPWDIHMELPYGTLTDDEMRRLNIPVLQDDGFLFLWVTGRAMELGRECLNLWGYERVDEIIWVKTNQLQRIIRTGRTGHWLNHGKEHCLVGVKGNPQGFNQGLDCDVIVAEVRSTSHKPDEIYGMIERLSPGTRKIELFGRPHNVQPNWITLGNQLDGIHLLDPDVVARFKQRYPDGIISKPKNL
# UniProt Q9H4Z3: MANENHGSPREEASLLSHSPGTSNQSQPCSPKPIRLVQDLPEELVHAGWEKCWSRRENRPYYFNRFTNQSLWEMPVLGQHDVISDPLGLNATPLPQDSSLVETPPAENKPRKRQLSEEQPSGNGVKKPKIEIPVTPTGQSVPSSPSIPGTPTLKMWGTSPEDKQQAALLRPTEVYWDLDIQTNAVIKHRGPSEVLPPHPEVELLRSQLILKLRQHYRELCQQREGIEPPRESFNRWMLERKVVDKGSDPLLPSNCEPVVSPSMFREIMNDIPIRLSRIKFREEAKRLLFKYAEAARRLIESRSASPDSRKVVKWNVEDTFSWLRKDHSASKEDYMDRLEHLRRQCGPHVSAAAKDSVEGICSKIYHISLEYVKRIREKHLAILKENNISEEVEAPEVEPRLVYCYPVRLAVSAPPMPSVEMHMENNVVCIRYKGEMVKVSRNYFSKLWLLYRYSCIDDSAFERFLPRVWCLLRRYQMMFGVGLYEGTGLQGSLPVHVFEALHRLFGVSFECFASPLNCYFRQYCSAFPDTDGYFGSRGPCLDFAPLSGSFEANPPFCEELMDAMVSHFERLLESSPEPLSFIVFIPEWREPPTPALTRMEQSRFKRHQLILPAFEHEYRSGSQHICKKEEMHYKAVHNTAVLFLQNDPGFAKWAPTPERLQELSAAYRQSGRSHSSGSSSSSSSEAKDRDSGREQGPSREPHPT
# Assays:
# Test in all cases: proximity labelling; BioID: BirA*-fused bait induced with 200 ng/ml dox in stable 293T cells, 50 μM biotin for 24 h, streptavidin bead purification of biotinylated proteins, LC-MS/MS; hits filtered by Limma (>4-fold, adjusted P < 0.01) and SAINT (score >0.74) against BirA* and NLS-BirA* controls
# [1] = biological target: METTL3, N-terminal BirA* fusion (human) (UniProt Q86U44)
# [2] = biological target: METTL3, C-terminal BirA* fusion (human) (UniProt Q86U44)
# [3] = biological target: MAC-PCIF1 (HA-Strep II-BirA*-PCIF1) (human) (UniProt Q9H4Z3)
binding [1],binding [2],binding [3],Binder
binds,binds,,"HAKAI (protein, UniProt Q75N03 1-491) MDHTDNELQGTNSSGSLGGLDVRRRIPIKLISKQANKAKPAPRTQRTINRMPAKAPPGDEEGFDYNEEERYDCKGGELFANQRRFPGHLFWDFQINILGEKDDTPVHFCDKCGLPIKIYGRMIPCKHVFCYDCAILHEKKGDKMCPGCSDPVQRIEQCTRGSLFMCSIVQGCKRTYLSQRDLQAHINHRHMRAGKPVTRASLENVHPPIAPPPTEIPERFIMPPDKHHMSHIPPKQHIMMPPPPLQHVPHEHYNQPHEDIRAPPAELSMAPPPPRSVSQETFRISTRKHSNLITVPIQDDSNSGAREPPPPAPAPAHHHPEYQGQPVVSHPHHIMPPQQHYAPPPPPPPPISHPMPHPPQAAGTPHLVYSQAPPPPMTSAPPPITPPPGHIIAQMPPYMNHPPPGPPPPQHGGPPVTAPPPHHYNPNSLPQFTEDQGTLSPPFTQPGGMSPGIWPAPRGPPPPPRLQGPPSQTPLPGPHHPDQTRYRPYYQ"
,,binds,"ICE2 (protein, UniProt Q659A1 1-982) MSSKMVISEPGLNWDISPKNGLKTFFSRENYKDHSMAPSLKELRVLSNRRIGENLNASASSVENEPAVSSATQAKEKVKTTIGMVLLPKPRVPYPRFSRFSQREQRSYVDLLVKYAKIPANSKAVGINKNDYLQYLDMKKHVNEEVTEFLKFLQNSAKKCAQDYNMLSDDARLFTEKILRACIEQVKKYSEFYTLHEVTSLMGFFPFRVEMGLKLEKTLLALGSVKYVKTVFPSMPIKLQLSKDDIATIETSEQTAEAMHYDISKDPNAEKLVSRYHPQIALTSQSLFTLLNNHGPTYKEQWEIPVCIQVIPVAGSKPVKVIYINSPLPQKKMTMRERNQIFHEVPLKFMMSKNTSVPVSAVFMDKPEEFISEMDMSCEVNECRKIESLENLYLDFDDDVTELETFGVTTTKVSKSPSPASTSTVPNMTDAPTAPKAGTTTVAPSAPDISANSRSLSQILMEQLQKEKQLVTGMDGGPEECKNKDDQGFESCEKVSNSDKPLIQDSDLKTSDALQLENSQEIETSNKNDMTIDILHADGERPNVLENLDNSKEKTVGSEAAKTEDTVLCSSDTDEECLIIDTECKNNSDGKTAVVGSNLSSRPASPNSSSGQASVGNQTNTACSPEESCVLKKPIKRVYKKFDPVGEILKMQDELLKPISRKVPELPLMNLENSKQPSVSEQLSGPSDSSSWPKSGWPSAFQKPKGRLPYELQDYVEDTSEYLAPQEGNFVYKLFSLQDLLLLVRCSVQRIETRPRSKKRKKIRRQFPVYVLPKVEYQACYGVEALTESELCRLWTESLLHSNSSFYVGHIDAFTSKLFLLEEITSEELKEKLSALKISNLFNILQHILKKLSSLQEGSYLLSHAAEDSSLLIYKASDGKVTRTAYNLYKTHCGLPGVPSSLSVPWVPLDPSLLLPYHIHHGRIPCTFPPKSLDTTTQQKIGGTRMPTRSHRNPVSMETKSSCLPAQQVETEGVAPHKRKIT"
,,binds,"SCAF8 (protein, UniProt Q9UPN6 1-1271) MEAVKTFNSELYSLNDYKPPISKAKMTQITKAAIKAIKFYKHVVQSVEKFIQKCKPEYKVPGLYVIDSIVRQSRHQFGQEKDVFAPRFSNNIISTFQNLYRCPGDDKSKIVRVLNLWQKNNVFKSEIIQPLLDMAAGIPPPVVTPVLASTTTAMSNTPGTPVTPVTPANVVQGLPDPWVSQITNTDTLAAVAQILQSPQGQQLQQLIQTLQIQQQKPQPSILQALDAGLVVQLQALTAQLTAAAAAANTLTPLEQGVSFNKKLMDRFDFGEDSEHSEEPKKEIPASQLSHVSESVNNSIFHQIAEQLQQQNLEHLRQQLLEQQQPQKATPQDSQEGTFGSEHSASPSQGSSQQHFLEPEVNLDDSIDIQQQDMDIDEGQDGVEEEVFEQEAKKVAVRSRSRTHSRSRSRSPRKRRSRSRSGSRKRKHRKRSRSRSRERKRKSSRSYSSERRAREREKERQKKGLPPIRSKTLSVCSTTLWVGQVDKKATQQDLTNLFEEFGQIESINMIPPRGCAYVCMVHRQDAFRALQKLSSGSYKIGSKVIKIAWALNKGVKTEYKQFWDVDLGVTYIPWEKVKVDDLEGFAEGGMIDQETVNTEWETVKSSEPVKETVQTTQSPTPVEKETVVTTQAEVFPPPVAMLQIPVAPAVPTVSLVPPAFPVSMPVPPPGFSPIPPPPFLRASFNPSQPPPGFMPPPVPPPVVPPPTIPPVVPTSLVQPSLSMTPETVKDVGFGSLVIPGGSVASNLATSALPAGNVFNAPTKQAEPEEKVPHLIDHQISSGENTRSVIPNDISSNAAILGGQPPNVTSNSGILGVQRPNVSSNSEILGVRPSNVSSSSGIIAAQPPNILNNSGILGIQPPSVSNSSGLLGVLPPNIPNNSGLVGVQPPNVPNTPGLLGTQPPAGPQNLPPLSIPNQRMPTMPMLDIRPGLIPQAPGPRFPLIQPGIPPQRGIPPPSVLDSALHPPPRGPFPPGDIFSQPERPFLAPGRQSVDNVTNPEKRIPLGNDNIQQEGDRDYRFPPIETRESISRPPPVDVRDVVGRPIDPREGPGRPPLDGRDHFGRPPVDIRENLVRPGIDHLGRRDHFGFNPEKPWGHRGDFDEREHRVLPVYGGPKGLHEERGRFRSGNYRFDPRSGPWNRGFGQEVHRDFDDRRRPWERQRDRDDRDFDFCREMNGNRLGRDRIQNTWVPPPHARVFDYFEGATSQRKGDNVPQVNGENTERHAQPPPIPVQNDPELYEKLTSSNEINKEKSDTVADIESEPVVESTETEGT"
binds,binds,,"RBM15 (protein, UniProt Q96T37 1-977) MRTAGRDPVPRRSPRWRRAVPLCETSAGRRVTQLRGDDLRRPATMKGKERSPVKAKRSRGGEDSTSRGERSKKLGGSGGSNGSSSGKTDSGGGSRRSLHLDKSSSRGGSREYDTGGGSSSSRLHSYSSPSTKNSSGGGESRSSSRGGGGESRSSGAASSAPGGGDGAEYKTLKISELGSQLSDEAVEDGLFHEFKRFGDVSVKISHLSGSGSGDERVAFVNFRRPEDARAAKHARGRLVLYDRPLKIEAVYVSRRRSRSPLDKDTYPPSASVVGASVGGHRHPPGGGGGQRSLSPGGAALGYRDYRLQQLALGRLPPPPPPPLPRDLERERDYPFYERVRPAYSLEPRVGAGAGAAPFREVDEISPEDDQRANRTLFLGNLDITVTESDLRRAFDRFGVITEVDIKRPSRGQTSTYGFLKFENLDMSHRAKLAMSGKIIIRNPIKIGYGKATPTTRLWVGGLGPWVPLAALAREFDRFGTIRTIDYRKGDSWAYIQYESLDAAHAAWTHMRGFPLGGPDRRLRVDFADTEHRYQQQYLQPLPLTHYELVTDAFGHRAPDPLRGARDRTPPLLYRDRDRDLYPDSDWVPPPPPVRERSTRTAATSVPAYEPLDSLDRRRDGWSLDRDRGDRDLPSSRDQPRKRRLPEESGGRHLDRSPESDRPRKRHCAPSPDRSPELSSSRDRYNSDNDRSSRLLLERPSPIRDRRGSLEKSQGDKRDRKNSASAERDRKHRTTAPTEGKSPLKKEDRSDGSAPSTSTASSKLKSPSQKQDGGTAPVASASPKLCLAWQGMLLLKNSNFPSNMHLLQGDLQVASSLLVEGSTGGKVAQLKITQRLRLDQPKLDEVTRRIKVAGPNGYAILLAVPGSSDSRSSSSSAASDTATSTQRPLRNLVSYLKQKQAAGVISLPVGGNKDKENTGVLHAFPPCEFSQQFLDSPAKALAKSEEDYLVMIIVRGFGFQIGVRYENKKRENLALTLL"
,,binds,"CMTR1 (enzyme, UniProt Q8N1G2 1-835) MKRRTDPECTAPIKKQKKRVAELALSLSSTSDDEPPSSVSHGAKASTTSLSGSDSETEGKQHSSDSFDDAFKADSLVEGTSSRYSMYNSVSQKLMAKMGFREGEGLGKYSQGRKDIVEASSQKGRRGLGLTLRGFDQELNVDWRDEPEPSACEQVSWFPECTTEIPDTQEMSDWMVVGKRKMIIEDETEFCGEELLHSVLQCKSVFDVLDGEEMRRARTRANPYEMIRGVFFLNRAAMKMANMDFVFDRMFTNPRDSYGKPLVKDREAELLYFADVCAGPGGFSEYVLWRKKWHAKGFGMTLKGPNDFKLEDFYSASSELFEPYYGEGGIDGDGDITRPENISAFRNFVLDNTDRKGVHFLMADGGFSVEGQENLQEILSKQLLLCQFLMALSIVRTGGHFICKTFDLFTPFSVGLVYLLYCCFERVCLFKPITSRPANSERYVVCKGLKVGIDDVRDYLFAVNIKLNQLRNTDSDVNLVVPLEVIKGDHEFTDYMIRSNESHCSLQIKALAKIHAFVQDTTLSEPRQAEIRKECLRLWGIPDQARVAPSSSDPKSKFFELIQGTEIDIFSYKPTLLTSKTLEKIRPVFDYRCMVSGSEQKFLIGLGKSQIYTWDGRQSDRWIKLDLKTELPRDTLLSVEIVHELKGEGKAQRKISAIHILDVLVLNGTDVREQHFNQRIQLAEKFVKAVSKPSRPDMNPIRVKEVYRLEEMEKIFVRLEMKIIKGSSGTPKLSYTGRDDRHFVPMGLYIVRTVNEPWTMGFSKSFKKKFFYNKKTKDSTFDLPADSIAPFHICYYGRLFWEWGDGIRVHDSQKPQDQDKLSKEDVLSFIQMHRA"
,,binds,"WAC (protein, UniProt Q9BTA9 1-647) MVMYARKQQRLSDGCHDRRGDSQPYQALKYSSKSHPSSGDHRHEKMRDAGDPSPPNKMLRRSDSPENKYSDSTGHSKAKNVHTHRVRERDGGTSYSPQENSHNHSALHSSNSHSSNPSNNPSKTSDAPYDSADDWSEHISSSGKKYYYNCRTEVSQWEKPKEWLEREQRQKEANKMAVNSFPKDRDYRREVMQATATSGFASGMEDKHSSDASSLLPQNILSQTSRHNDRDYRLPRAETHSSSTPVQHPIKPVVHPTATPSTVPSSPFTLQSDHQPKKSFDANGASTLSKLPTPTSSVPAQKTERKESTSGDKPVSHSCTTPSTSSASGLNPTSAPPTSASAVPVSPVPQSPIPPLLQDPNLLRQLLPALQATLQLNNSNVDISKINEVLTAAVTQASLQSIIHKFLTAGPSAFNITSLISQAAQLSTQAQPSNQSPMSLTSDASSPRSYVSPRISTPQTNTVPIKPLISTPPVSSQPKVSTPVVKQGPVSQSATQQPVTADKQQGHEPVSPRSLQRSSSQRSPSPGPNHTSNSSNASNATVVPQNSSARSTCSLTPALAAHFSENLIKHVQGWPADHAEKQASRLREEAHNMGTIHMSEICTELKNLRSLVRVCEIQATLREQRILFLRQQIKELEKLKNQNSFMV"

# These are yes or no findings as the source states them, for the method shown. Binding seen in cells or lysates may run through a third protein. Here binding means that the protein was enriched with, or labelled near, the bait; the list need not be complete.
